PubChem BioAssay
Inconclusive means that the source gave no clear call. Such entries were picked first, then a sample of the others. For some assays here: Potencies of inconclusive entries are doubtful fits and often do not repeat. The source made the active and inactive calls. Unless noted, cut-off not given; nearly all actives show AC50 up to about 26 µM.

By UniProt entry, the sequences of proteins in these tests, tags left out.
UniProt P08183, whole entry, looked up: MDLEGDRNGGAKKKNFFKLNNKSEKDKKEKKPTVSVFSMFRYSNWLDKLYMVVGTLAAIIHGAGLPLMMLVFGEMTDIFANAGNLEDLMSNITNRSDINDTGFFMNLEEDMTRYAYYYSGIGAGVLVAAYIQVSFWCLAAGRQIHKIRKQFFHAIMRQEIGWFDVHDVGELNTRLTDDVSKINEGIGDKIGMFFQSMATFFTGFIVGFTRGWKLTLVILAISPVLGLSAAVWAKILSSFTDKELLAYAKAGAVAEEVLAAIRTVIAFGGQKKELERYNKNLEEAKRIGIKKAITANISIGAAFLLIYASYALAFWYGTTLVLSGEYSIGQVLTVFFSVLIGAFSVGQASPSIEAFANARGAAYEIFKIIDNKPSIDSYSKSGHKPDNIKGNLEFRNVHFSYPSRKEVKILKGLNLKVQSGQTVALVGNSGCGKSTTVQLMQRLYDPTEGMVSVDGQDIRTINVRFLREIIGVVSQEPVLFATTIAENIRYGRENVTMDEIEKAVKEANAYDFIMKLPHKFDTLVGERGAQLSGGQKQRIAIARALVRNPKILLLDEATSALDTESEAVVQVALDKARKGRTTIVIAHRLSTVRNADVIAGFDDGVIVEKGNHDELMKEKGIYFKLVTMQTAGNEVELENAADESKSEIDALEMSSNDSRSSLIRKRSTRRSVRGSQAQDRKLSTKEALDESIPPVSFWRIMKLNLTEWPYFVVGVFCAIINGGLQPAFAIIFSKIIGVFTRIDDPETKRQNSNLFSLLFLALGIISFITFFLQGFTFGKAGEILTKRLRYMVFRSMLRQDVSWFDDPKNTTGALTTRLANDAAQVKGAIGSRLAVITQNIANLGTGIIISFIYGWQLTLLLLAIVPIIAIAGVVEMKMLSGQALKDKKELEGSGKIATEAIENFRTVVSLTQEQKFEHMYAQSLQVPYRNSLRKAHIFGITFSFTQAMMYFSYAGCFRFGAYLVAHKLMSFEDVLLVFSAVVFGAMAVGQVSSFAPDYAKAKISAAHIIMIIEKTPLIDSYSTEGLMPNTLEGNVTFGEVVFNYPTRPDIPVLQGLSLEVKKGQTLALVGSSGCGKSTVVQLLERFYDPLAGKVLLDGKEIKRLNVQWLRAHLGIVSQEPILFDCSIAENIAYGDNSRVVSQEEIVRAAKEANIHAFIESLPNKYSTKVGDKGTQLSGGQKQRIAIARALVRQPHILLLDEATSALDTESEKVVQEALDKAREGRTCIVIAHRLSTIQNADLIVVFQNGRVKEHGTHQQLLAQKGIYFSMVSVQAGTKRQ

Assays:
[1] = growth inhibition of DIPG glioma cells, dose response, cell-based, SU-DIPG-XVII, MIPE5.0, CellTiter-Glo, qHTS (AID 1347060); conditions: SU-DIPG-XVII viability, CellTiter-Glo ATP luminescence;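 on AC50: cells exposed to compound for 48 hours before viability readout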
[2] = growth inhibition of DIPG glioma cells, dose response, cell-based, SU-DIPG-XIII, MIPE4.0, CellTiter-Glo, qHTS (AID 1347061; cut-off not given, nearly all actives have AC50 up to about 37 µM;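 further: cells exposed to compound for 48 hours before readout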); conditions: SU-DIPG-XIII viability, CellTiter-Glo ATP luminescence
[3] = growth inhibition of DIPG glioma cells, dose response, cell-based, JHH-DIPG-1, MIPE4.0, CellTiter-Glo, qHTS (AID 1347062; cut-off not given, nearly all actives have AC50 up to about 27 µM;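 on AC50: cells exposed to compound for two days before readout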); conditions: JHH-DIPG-1 viability, CellTiter-Glo ATP luminescence
[4] = growth inhibition of DIPG glioma cells, dose response, cell-based, SU-DIPG-XIII, MIPE5.0, CellTiter-Glo, qHTS (AID 1347064; cut-off not given, nearly all actives have AC50 up to about 23 µM;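 on AC50: cells exposed to compound for 48 hours before the viability read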); conditions: SU-DIPG-XIII viability, CellTiter-Glo ATP luminescence
[5] = JHH-DIPG-1 glioma cell viability, MIPE5.0 library, CellTiter-Glo luminescence, qHTS (AID 1347067); conditions: JHH-DIPG-1 glioma viability, CellTiter-Glo ATP luminescence;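 further: cells exposed to compound for 48 hours before readout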
[6] = SU-DIPG-XXV glioma cell viability, MIPE5.0 library, qHTS (AID 1347068; cut-off not given, nearly all actives have IC50 up to about 30 µM;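 on IC50: cells exposed to compound for 48 hours before viability readout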)
[7] = SU-DIPG-VI glioma cell viability, MIPE4.0 library, CellTiter-Glo luminescence, qHTS (AID 1347066; cut-off not given, nearly all actives have AC50 up to about 30 µM;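 further: cells exposed to compound for 48 hours before readout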); conditions: CellTiter-Glo ATP luminescence
[8] = viability loss in pontine glioma line – cell-based, SU-DIPG-XXV, MIPE5.0, CellTiter-Glo, qHTS, dose response (AID 1347065); conditions: CellTiter-Glo ATP luminescence;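 further: cells exposed to compound for 48 hours before ATP readout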
[9] = inhibitors of polyQ aggregate elongation, biochemical, solid-phase synthetic aggregates, QA3 (AID 1585; call rule not given here); conditions: biotin-polyQ incorporation, at 100 µM, hits give high values
[10] = polyglutamine aggregation reduction, turbidity readout, qthio, single concentration 25 µM screen (AID 1588; call rule not given here); conditions: at 25 µM, hits give low values
[11] = protection of motor neurons from glutamate death, cell-based, TUNEL DNA degradation staining, MNGlu (AID 1594; call rule not given here); conditions: glutamate-induced death, at 1 µM, hits give high values
[12] = enhancers of SMN2 over SMN1 splicing, cell-based, SMN2/SMN1 luciferase reporters (AID 1598; call rule not given here); conditions: SMN2 vs SMN1 luciferase splicing reporter cells; at 10 µM; hits give high values
[13] = target: ATP-dependent translocase ABCB1 (Homo sapiens) (UniProt P08183); experiment: MDR1 (ABCB1) efflux transporter inhibition, cell-based (AID 377; in the data active means fluorescence slope change above about 50%; inconclusive means mostly about 31% to 49%); conditions: MDR1-expressing cells, fluorescent substrate accumulation slope; hits give high values; concentration not given here

CCN1CCN(Cc2ccc(-c3cc4c(N[C@H](C)c5ccccc5)ncnc4[nH]3)cc2)CC1
AC50 [1]: active: 14.8 µM | AC50 [2]: active: 5.26 µM | AC50 [3]: active: 13.2 µM | AC50 [4]: inconclusive: 37.2 µM [cytotoxic] | AC50 [5]: inconclusive: 33.2 µM [cytotoxic] | IC50 [6]: inconclusive: 37.2 µM [cytotoxic]

CO[C@H]1C[C@@H]2CC[C@@H](C)[C@@](O)(O2)C(=O)C(=O)N2CCCC[C@H]2C(=O)O[C@H]([C@H](C)C[C@@H]2CC[C@@H](OCCO)[C@H](OC)C2)CC(=O)[C@H](C)/C=C(/C)[C@@H](O)[C@@H](OC)C(=O)[C@H](C)C[C@H](C)/C=C\C=CC=C1C
AC50 [1]: inconclusive: 33.2 µM [cytotoxic] | AC50 [2]: inconclusive: 1.48 µM [cytotoxic] | AC50 [3]: inconclusive: 13.2 µM [cytotoxic] | AC50 [4]: inconclusive: 26.3 µM [cytotoxic] | AC50 [7]: inconclusive: 33.2 µM [cytotoxic] | AC50 [5]: active: 29.5 µM

C[C@@H](N)c1ccc(C(=O)Nc2ccnc3[nH]ccc23)cc1
AC50 [1]: inconclusive: 20.9 µM [cytotoxic] | AC50 [2]: inconclusive: 26.4 µM [cytotoxic] | AC50 [3]: inconclusive: 26.4 µM [cytotoxic] | AC50 [4]: inconclusive: 20.9 µM [cytotoxic] | AC50 [8]: inconclusive: 16.6 µM [cytotoxic] | AC50 [5]: inconclusive: 2.63 µM [cytotoxic] | IC50 [6]: active: 18.6 µM

C[C@H](NC(=O)c1sccc1OCc1ccc(Cl)cc1)c1ccccc1
AC50 [1]: inconclusive: 20.9 µM [cytotoxic] | AC50 [2]: inconclusive: 16.6 µM [cytotoxic] | AC50 [3]: inconclusive: 20.9 µM [cytotoxic] | AC50 [4]: active: 11.8 µM | AC50 [7]: inconclusive: 26.4 µM [cytotoxic]

CC(=O)O[C@]1(C(C)=O)CC[C@H]2[C@@H]3C[C@H](C)C4=CC(=O)CC[C@]4(C)[C@H]3CC[C@@]21C
AC50 [1]: inconclusive: 59 µM [cytotoxic] | AC50 [2]: inconclusive: 26.4 µM [cytotoxic] | outcome [3]: inactive | AC50 [4]: inconclusive: 9.34 µM [cytotoxic] | AC50 [8]: inconclusive: 18.6 µM [cytotoxic] | outcome [6]: inactive

Cc1cccc(-c2[nH]c(C(C)(C)C)nc2-c2ccc3nccnc3c2)n1
outcome [1]: inactive | AC50 [2]: active: 2.35 µM | AC50 [3]: inconclusive: 20.9 µM [cytotoxic] | AC50 [4]: active: 9.34 µM | AC50 [7]: active: 4.69 µM

CN(C)C(=O)[C@H](O)[C@H](Cc1ccccc1)NC(=O)c1cc2cc(Cl)ccc2[nH]1
AC50 [1]: inconclusive: 20.9 µM [cytotoxic] | AC50 [2]: inconclusive: 0.0235 µM | AC50 [3]: inconclusive: 0.0526 µM | outcome [4]: inactive | AC50 [7]: inconclusive: 0.105 µM | outcome [6]: inactive

CN(C)CCC=C1c2ccccc2C=Cc2ccccc21
inhibition [9]: inconclusive: -21.1% | aggregation (% of control) [10]: inconclusive: 79.8% | protection [11]: inconclusive: 1% | SMN2/SMN1 luciferase ratio [12]: inconclusive: 0.98 | AC50 [1]: inconclusive: 0.00166 µM | outcome [2]: inactive | AC50 [3]: inconclusive: 18.7 µM [cytotoxic] | AC50 [4]: inconclusive: 0.00105 µM | AC50 [8]: inconclusive: 16.6 µM [cytotoxic] | AC50 [5]: inconclusive: 26.3 µM [cytotoxic]

O=C(c1ccccc1)c1ccc2n1CCC2C(=O)O (stereo unspecified)
inhibition [9]: inconclusive: -1.23% | aggregation (% of control) [10]: inconclusive: 121% | SMN2/SMN1 luciferase ratio [12]: inconclusive: 1.19 | outcome [1]: inactive | AC50 [2]: active: 8.33 µM | outcome [3]: inactive | outcome [4]: inactive | outcome [8]: inactive | outcome [5]: inactive

COc1cc2c(NC3CCN(C(C)C)CC3)nc(C3CCCCC3)nc2cc1OCCCN1CCCC1
AC50 [1]: active: 23.5 µM | AC50 [2]: inconclusive: 29.6 µM [cytotoxic] | AC50 [3]: active: 8.33 µM | AC50 [4]: inconclusive: 37.2 µM [cytotoxic] | AC50 [7]: inconclusive: 33.2 µM [cytotoxic] | AC50 [5]: inconclusive: 37.2 µM [cytotoxic] | IC50 [6]: active: 23.5 µM

COc1cc2ncnc(Nc3cc(Br)c(O)c(Br)c3)c2cc1OC
AC50 [1]: inconclusive: 14.8 µM [cytotoxic] | outcome [2]: inactive | AC50 [3]: inconclusive: 16.6 µM [cytotoxic] | AC50 [4]: inconclusive: 14.8 µM [cytotoxic] | AC50 [8]: inconclusive: 13.2 µM [cytotoxic] | AC50 [5]: inconclusive: 8.33 µM [cytotoxic] | IC50 [6]: inconclusive: 16.6 µM [cytotoxic]

COC(=O)Nc1nc2ccc(Sc3ccccc3)cc2[nH]1
fluorescence slope change [13]: active: 52.1% | inhibition [9]: inconclusive: 7.1% | aggregation (% of control) [10]: inconclusive: 115% | protection [11]: inconclusive: -2% | SMN2/SMN1 luciferase ratio [12]: inconclusive: 1.15 | AC50 [1]: active: 0.934 µM | AC50 [2]: inconclusive: 0.0132 µM [cytotoxic] | AC50 [3]: inconclusive: 4.18 µM [cytotoxic] | AC50 [4]: inconclusive: 2.09 µM [cytotoxic] | AC50 [8]: active: 0.742 µM | AC50 [5]: inconclusive: 2.63 µM [cytotoxic] | outcome [6]: inactive
